According to PubChem BioAssay AID2685 (National Center for Advancing Translational Sciences (NCATS), 2010):
The other results are listed elsewhere or left out. The main result of the screen is listed elsewhere. These columns were measured beside it and carry no call. Most of these compounds were active or inconclusive in the main read-out, so they are no random draw. The note in brackets gives the kind of curve behind each potency; many fits are weak.

Experiment: qHTS Assay for Lipid Storage Modulators in Drosophila S3 Cells;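 on cell number change: cells counted by Cell Tracker Red CMTPX staining in the red channel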
Conditions: BODIPY lipid droplet fluorescence, 18-24 h; for cell number change: measured here: cell count max response, cells fed with added oleic acid
Method in brief: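 Drosophila S3 cells loaded with oleic acid (400 uM, as added) and compounds at several concentrations; lipid droplets imaged by 488-nm laser-scanning cytometry, 500–530 nm intensity and object ratio to cell channel. Percent activity normalized to 20 uM Triacsin C.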

[1] = measured here: cell number channel AC50, cells fed with added oleic acid
[2] = measured here: lipid fluorescence (Fed channel) AC50, cells fed with added oleic acid

SMILES	cell number change	AC50 [1]	AC50 [2]
COc1ccc2c(c1OC)C(=O)N1N=C(c3ccccc3)CC21 (stereo not drawn)	59.3%	1.46 µM [rising, full curve]	1.16 µM [rising, full curve]
N#Cc1ccc(C(=O)N2CCN(C(=O)C3CCCO3)CC2)cc1 (stereo not drawn)	19.7%		4.61 µM [rising, full curve, poor fit]
COc1cccc(OCC(O)CN2CCN(c3ccc(Cl)cc3)CC2)c1 (stereo not drawn)	-3.01%		0.00517 µM [rising, full curve, poor fit]
O=C(CSCc1c(F)cccc1Cl)NCCc1ccccc1	1.3%		29.1 µM [rising, single point]
Cc1nn(Cc2ccc(C(=O)Nc3nccs3)cc2)c(C)c1Cl	94.3%	0.58 µM [rising, full curve]	4.61 µM [rising, single point]
COc1ccccc1CNC(=O)c1ccccc1N(C)S(C)(=O)=O	-41.9%	29.1 µM [falling, single point]	3.66 µM [falling, full curve, poor fit]
O=C(NC1CC2CCCC(C1)N2C(=O)Nc1ccccc1Cl)C1CC1 (stereo not drawn)	21%		0.103 µM [falling, full curve, poor fit]
Cc1ccc(-c2nn(-c3ccccc3)cc2C2CC(c3cccs3)=NN2C(=O)CCC(=O)O)cc1 (stereo not drawn)	-22.6%		
Cc1ccc(S(=O)(=O)N2CCC(C(=O)OCC(=O)N(C)C3CCCCC3)CC2)cc1C	-36.4%	32.6 µM [falling, single point]	
FC(F)(F)c1cccc(CNc2ncccc2-c2nc3cc(Cl)ccc3o2)c1	20.6%		
CC(C)(C)c1cc(C(=O)NNS(=O)(=O)c2ccccc2)n[nH]1	14.7%		0.184 µM [rising, full curve, poor fit]
CC(C)(C)OC(=O)N1CCC(CNC(=O)Nc2ccccc2)CC1	-23.8%		18.4 µM [falling, single point]
CS(=O)(=O)Cc1ccc(C(=O)Nc2cccc(-c3nc4ccccc4[nH]3)c2)cc1	31.9%	9.2 µM [rising, partial curve, poor fit]	
COCCn1c(=N)c(C(=O)NCCc2ccc(OC)cc2)cc2c(=O)n3cccc(C)c3nc21	11.4%		0.92 µM [rising, full curve]
CC(NC(=O)c1ccc(F)cc1)c1nc2ccccc2n1Cc1ccccc1F (stereo not drawn)	20.8%		6.51 µM [falling, single point]
Cc1ccc(Nc2nnc(SCc3nc4ccccc4c(=O)[nH]3)s2)cc1	5.85%		0.411 µM [rising, partial curve, poor fit]
COc1ccc(CCNC(=O)CCn2c(=O)c3cccn3c3cccnc32)cc1OC	-15.6%	0.0082 µM [falling, full curve]	
Cc1ccc2[nH]cc(CCNC(=O)c3ccco3)c2c1	-2.52%		6.51 µM [falling, single point]
COc1ccc(Cl)cc1NC(=O)CN1CCN(S(=O)(=O)N2CCCCC2)CC1	40.4%	13 µM [rising, partial curve, poor fit]	1.84 µM [falling, partial curve]
CCOC(=O)C1CCN(C(c2cccs2)c2sc3nc(C)nn3c2O)CC1 (stereo not drawn)	75.7%	29.1 µM [rising, single point]	
COc1ccc(C2(CNC(=O)CCC(=O)O)CCCC2)cc1OC	-93.7%	25.9 µM [falling, partial curve]	6.51 µM [falling, single point]
NC(=S)N/N=C/c1ccc(-c2ccc([N+](=O)[O-])cc2)o1	66.4%	29.1 µM [rising, single point]	
CC(C)c1nc2c(s1)CCc1onc(-c3ccc(Cl)cc3)c1-2	-6.01%		0.58 µM [falling, full curve]
CCCCCC(=O)Nc1ccc(N2CCOCC2)c(S(=O)(=O)Nc2ccc(OC)cc2)c1	39.9%	2.06 µM [rising, full curve, poor fit]	4.61 µM [rising, partial curve]
O=C(CSc1nc(O)c(Cc2ccccc2)c(=O)n1-c1ccccc1)N1CCOCC1	51.7%	0.58 µM [rising, partial curve, poor fit]	
COc1ccccc1N1CCN(Cc2cc3c(cc2Br)OCCO3)CC1			0.58 µM [rising, single point]
Cc1csc(SCC(=O)Nc2ccc(S(=O)(=O)N3CCCC3)cc2)n1	-36.1%	23.1 µM [falling, partial curve, poor fit]	20.6 µM [falling, partial curve, poor fit]

Looked up one by one from the entries so far:
SMILES	cell number change	AC50 [1]	AC50 [2]
CS(=O)(=O)Cc1ccc(C(=O)Nc2cccc(-c3nc4ccccc4[nH]3)c2)cc1	31.9%	9.2 µM [rising, partial curve, poor fit]	
N#Cc1ccc(C(=O)N2CCN(C(=O)C3CCCO3)CC2)cc1 (stereo not drawn)	19.7%		4.61 µM [rising, full curve, poor fit]
